Part of at least one peptide drawing is inferred or uncertain, most often the ends. At least one structure is not confirmed: it was looked up by name or label, or the drawing left a doubt.
Experiments:
children with ASD [1] = assay: Clinical Global Impression (CGI) scales, social communication, clinician rated, 4-week trial; type: in vivo, human; parameters: key to Is improvement in score greater or lesser with high pre-Tx blood AVP levels? CGI - Improvement, Social & Communication: Greater: “greater” indicates that symptom improvement increased with higher pre-treatment blood AVP concentrations; Lesser: “lesser” indicates that less improvement was observed at higher pre-treatment blood AVP concentrations; “ns” indicates that the scale was not significantly affected by pre-treatment blood AVP concentration
children with ASD [2] = assay: Social Responsiveness Scale, 2nd Edition (SRS-2), parent rated, 4-week intranasal treatment trial; type: in vivo, human; parameters: key to Is improvement in score greater or lesser with high pre-Tx blood AVP levels? SRS-2 T-Score / Is improvement in score greater or lesser with high pre-Tx blood AVP levels? SRS-2 Social Awareness / Is improvement in score greater or lesser with high pre-Tx blood AVP levels? SRS-2 Social Cognition / Is improvement in score greater or lesser with high pre-Tx blood AVP levels? SRS-2 Social Communication / Is improvement in score greater or lesser with high pre-Tx blood AVP levels? SRS-2 Social Motivation: Greater: “greater” indicates that symptom improvement increased with higher pre-treatment blood AVP concentrations; Lesser: “lesser” indicates that less improvement was observed at higher pre-treatment blood AVP concentrations; “ns” indicates that the scale was not significantly affected by pre-treatment blood AVP concentration
[3] = system: patients with post-stroke aphasia; conditions: single-doses, intranasal; cited from earlier work
children with ASD [4] = assay: Reading the Mind in the Eyes Test (RMET), child performance, 4-week trial; type: in vivo, human; conditions: 4-week treatment
healthy individuals = conditions: single-doses, intranasal; cited from earlier work
children with ASD [5] = assay: Repetitive Behaviors Scale-Revised (RBS-R), parent rated, 4-week trial; type: in vivo, human; parameters: key to Is improvement in score greater or lesser with high pre-Tx blood AVP levels? RBS-R - Total / Is improvement in score greater or lesser with high pre-Tx blood AVP levels? RBS-R Self-injurious behavior / Is improvement in score greater or lesser with high pre-Tx blood AVP levels? RBS-R Compulsive: Greater: “greater” indicates that symptom improvement increased with higher pre-treatment blood AVP concentrations; Lesser: “lesser” indicates that less improvement was observed at higher pre-treatment blood AVP concentrations; “ns” indicates that the scale was not significantly affected by pre-treatment blood AVP concentration
[6] = system: patients with central diabetes insipidus; conditions: single-doses, intranasal; cited from earlier work
children with ASD [7] = assay: Facial Emotion Recognition Test (FERT), child performance, 4-week trial; type: in vivo, human; conditions: 4-week treatment
children with ASD [8] = assay: Spence Children's Anxiety Scale, parent rated, 4-week trial; type: in vivo, human; parameters: key to Is improvement in score greater or lesser with high pre-Tx blood AVP levels? Spence Children's Anxiety Scale: Greater: “greater” indicates that symptom improvement increased with higher pre-treatment blood AVP concentrations; Lesser: “lesser” indicates that less improvement was observed at higher pre-treatment blood AVP concentrations; “ns” indicates that the scale was not significantly affected by pre-treatment blood AVP concentration
[9] = AVP-treated participants, post-hoc test

## N=C(N)NCCC[C@H](NC(=O)[C@@H]1CCCN1C(=O)[C@@H]1CSSC[C@H](N)C(=O)N[C@@H](Cc2ccc(O)cc2)C(=O)N[C@@H](Cc2ccccc2)C(=O)N[C@@H](CCC(N)=O)C(=O)N[C@@H](CC(N)=O)C(=O)N1)C(=O)NCC(N)=O [AVP, arginine vasopressin]
Children with ASD [1]; 4-week AVP administration
  Clinician evaluated improvement in social communication abilities (CGI-I) compared to placebo: greater clinician evaluated improvement
Children with ASD [1]; [9]
  Is improvement in score greater or lesser with high pre-Tx blood AVP levels? CGI - Improvement, Social & Communication: Greater
Children with ASD [2]; AVP vs placebo, four weeks
  Effect size of treatment on SRS-2 T-Score, equivalent Cohen's d: 1.40
  Effect size of treatment on SRS-2 T-Score, ηp^2: 33.0%
Children with ASD [2]; [9]
  Is improvement in score greater or lesser with high pre-Tx blood AVP levels? SRS-2 Social Awareness: Greater
  Is improvement in score greater or lesser with high pre-Tx blood AVP levels? SRS-2 Social Cognition: Greater
  Is improvement in score greater or lesser with high pre-Tx blood AVP levels? SRS-2 Social Communication: Greater
  Is improvement in score greater or lesser with high pre-Tx blood AVP levels? SRS-2 Social Motivation: Greater
  Is improvement in score greater or lesser with high pre-Tx blood AVP levels? SRS-2 T-Score: Greater
Children with ASD [2]; intranasal AVP for four weeks
  Improvement in social abilities, SRS-2 T-Score, compared to placebo: greater improvement
[3]
  Speech and word formation: enhance speech and word formation
Children with ASD [4]
  Theory of mind abilities (RMET) vs. placebo: enhanced theory of mind abilities
Healthy individuals
  Social abilities (memory for emotional faces, identification of social words, cooperative behavior): enhance a variety of social abilities
Children with ASD [5]; 4-week treatment
  Repetitive behaviors (RBS-R), main effect of treatment compared to placebo: did not significantly reduce repetitive behaviors
Children with ASD [5]; [9]
  Is improvement in score greater or lesser with high pre-Tx blood AVP levels? RBS-R - Total: Greater
  Is improvement in score greater or lesser with high pre-Tx blood AVP levels? RBS-R Compulsive: Greater
  Is improvement in score greater or lesser with high pre-Tx blood AVP levels? RBS-R Self-injurious behavior: Greater
[6]
  Short and long-term memory: improve short and long-term memory
Children with ASD [7]
  Facial emotion recognition abilities (FERT) vs. placebo: increased facial emotion recognition abilities
Children with ASD [8]; 4-week treatment
  Anxiety symptoms (Spence Children's Anxiety Scale) compared to placebo: reduced anxiety symptoms
Children with ASD [8]; [9]
  Is improvement in score greater or lesser with high pre-Tx blood AVP levels? Spence Children's Anxiety Scale: Greater
